Source: publication PMC4526233
Numbering of substitutions follows the chain as printed. Results are given in words; binding and its absence hold for the method and conditions named. Binding seen in cells or lysates may run through a third protein. For some assays here: A result given as binding can be weak or reduced; the word gives no strength. Tags and fused reporters may be left off the sequences shown.

What was measured:
FLAG-tagged B14 (F-B14) = biological target: T1, FLAG-tagged B14 (F-B14) (UniProt Q8TBM8); experiment: co-IP; CV-1 cells expressing FLAG-tagged B14 constructs cross-linked with 2 mM DSP, lysed in 1% Triton X-100 in TSEp buffer; anti-FLAG agarose, 2 h at 4°C; immunoblot
T1 sequence: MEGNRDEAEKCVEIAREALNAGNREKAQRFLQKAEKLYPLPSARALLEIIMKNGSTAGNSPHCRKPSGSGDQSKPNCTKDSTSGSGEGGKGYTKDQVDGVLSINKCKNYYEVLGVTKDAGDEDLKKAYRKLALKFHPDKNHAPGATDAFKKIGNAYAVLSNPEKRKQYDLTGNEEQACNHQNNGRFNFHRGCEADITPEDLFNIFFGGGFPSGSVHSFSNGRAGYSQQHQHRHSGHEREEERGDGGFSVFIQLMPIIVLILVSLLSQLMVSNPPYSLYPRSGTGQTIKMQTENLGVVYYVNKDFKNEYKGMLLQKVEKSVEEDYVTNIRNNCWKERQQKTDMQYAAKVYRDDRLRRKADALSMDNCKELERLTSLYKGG

[1] = biological target: T2, FLAG-tagged H136Q B14 (F-B14 H136Q) (UniProt Q8TBM8); experiment: as above
T2 sequence: T1 sequence with H136Q

[2] = biological target: T3, S-tagged HspBP1 (HspBP1-S) (human) (UniProt Q9NZL4); experiment: pull-down; S-tagged proteins affinity purified on S tag protein-conjugated agarose from CV-1 whole cell extract (TSEp buffer with 0.2% digitonin), 2 h at 4°C; immunoblot; cells uninfected (Fig 1H) or infected with SV40 MOI ~10 for 2, 8 or 12 h (Fig 5B, 5C)
T3 sequence: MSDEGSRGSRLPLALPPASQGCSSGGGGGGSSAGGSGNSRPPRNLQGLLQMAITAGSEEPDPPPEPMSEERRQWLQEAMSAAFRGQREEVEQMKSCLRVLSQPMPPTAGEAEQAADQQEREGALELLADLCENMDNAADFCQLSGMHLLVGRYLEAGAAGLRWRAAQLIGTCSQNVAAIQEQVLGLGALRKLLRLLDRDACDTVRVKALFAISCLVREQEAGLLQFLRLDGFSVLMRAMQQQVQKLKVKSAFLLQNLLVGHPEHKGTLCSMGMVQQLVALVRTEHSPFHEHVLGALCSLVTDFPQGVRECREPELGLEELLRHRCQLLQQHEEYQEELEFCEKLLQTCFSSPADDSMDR

| Substance | binding (FLAG-tagged B14 (F-B14)) | binding [1] | binding [2] |
| --- | --- | --- | --- |
| Hsc70 (endogenous, CV-1 cells) (simian (endogenous in CV-1)) | binds | no binding | binds |
| Hsp105 (endogenous, CV-1 cells) (simian (endogenous in CV-1)) | binds | no binding |  |
